At least one structure is not confirmed: it was looked up by name or label, or the drawing left a doubt.
Key:
[1] = system: Caucasian schizophrenia patients; assay: CATIE: hospitalization due to exacerbation of psychosis by SULT4A1-1 status; format: in vivo, human; conditions: per drug
Text: To assess if SULT4A1-1 status impacts the risk of hospitalization in Caucasians, the inventors assigned SULT4A1-1 status to each CATIE subject and evaluated hospitalization events due to exacerbation of psychosis. For this analysis, the inventors assigned a dichotomous value (positive or negative) for hospitalization status to subjects in each phase of the trial based on only the first hospitalization event for a given patient in that phase. Patients participating in Phases 1, 2, and/or 3 were included in the totals for the appropriate drug.
A Kaplan-Meier survival analysis was performed to determine whether there was a difference between the survival (hospitalization) rates for the SULT4A1-1 negative and SULT4A1-1 positive patient populations treated with each of the atypical antipsychotics. Survival plots model the fraction of the population that survived (i.e., no hospitalization event) as a function of time.

[2] = system: Caucasian schizophrenia patients; conditions: sample as a whole (Lieberman et al., 2005); cited from earlier work
[3] = system: unsegmented patient populations; conditions: cited from earlier work

Cc1cc2c(s1)Nc1ccccc1N=C2N1CCN(C)CC1 [Olanzapine]
Kaplan-Meier: difference between survival (no hospitalization) rates of SULT4A1-1 negative and positive patients [1]: significant difference
Time to discontinuation for all causes, ranking of drugs [2]: superior drug
Effect Size vs. FGA ([3]; first generation antipsychotics, Davis et al. (2003)): −0.21
Effect Size vs. Placebo ([3]; meta-analysis, Leucht et al. (2009), negative = greater reduction in PANSS): −0.59

Reference: patent US20120277211A1, “METHODS AND COMPOSITIONS FOR THE TREATMENT OF PSYCHOTIC DISORDERS THROUGH THE IDENTIFICATION OF THE SULT4A1-1 HAPLOTYPE” (priority 2009, published 2012)
